Results reported in paper PMC7104407.
No constants are given. Whether binding was seen depends on the method and setting. Binding seen in cells or lysates may run through a third protein. Some entries that bind do so weakly or less than the wild type.

The chains behind the UniProt entries cited, without tags or fusion partners.
UniProt Q8N163: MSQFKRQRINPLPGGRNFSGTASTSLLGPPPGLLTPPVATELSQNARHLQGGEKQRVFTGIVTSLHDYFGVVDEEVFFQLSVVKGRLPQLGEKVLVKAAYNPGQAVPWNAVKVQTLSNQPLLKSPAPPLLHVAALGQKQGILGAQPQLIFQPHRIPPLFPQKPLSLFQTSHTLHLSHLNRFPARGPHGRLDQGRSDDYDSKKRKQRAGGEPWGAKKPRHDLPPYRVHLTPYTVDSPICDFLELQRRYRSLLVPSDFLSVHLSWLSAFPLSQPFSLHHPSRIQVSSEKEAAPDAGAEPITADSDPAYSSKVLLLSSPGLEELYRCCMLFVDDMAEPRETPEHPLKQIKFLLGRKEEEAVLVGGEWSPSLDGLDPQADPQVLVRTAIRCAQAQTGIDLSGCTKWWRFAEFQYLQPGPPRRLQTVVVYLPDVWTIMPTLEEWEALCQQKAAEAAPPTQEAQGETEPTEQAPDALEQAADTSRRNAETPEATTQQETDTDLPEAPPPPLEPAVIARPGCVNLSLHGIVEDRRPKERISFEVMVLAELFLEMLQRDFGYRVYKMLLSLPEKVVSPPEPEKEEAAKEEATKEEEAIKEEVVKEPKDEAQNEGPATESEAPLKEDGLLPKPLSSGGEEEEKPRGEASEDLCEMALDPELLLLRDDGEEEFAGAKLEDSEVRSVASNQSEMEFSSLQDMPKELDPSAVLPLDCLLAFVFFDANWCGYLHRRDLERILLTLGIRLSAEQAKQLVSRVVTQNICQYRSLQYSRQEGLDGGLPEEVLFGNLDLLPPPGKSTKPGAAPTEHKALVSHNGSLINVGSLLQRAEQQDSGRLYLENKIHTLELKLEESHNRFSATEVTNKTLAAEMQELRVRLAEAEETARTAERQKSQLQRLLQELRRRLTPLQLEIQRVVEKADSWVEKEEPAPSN

Biological target: FLAG-HA−DBC1 (human) (UniProt Q8N163)
Assay: co-IP; IP from nuclear extract of the FLAG-HA−DBC1 stable cell line, then immunoblotting

binding: binds
B1: AFF1 (protein, UniProt P51825 1-1210)
chain: MAAQSSLYNDDRNLLRIREKERRNQEAHQEKEAFPEKIPLFGEPYKTAKGDELSSRIQNMLGNYEEVKEFLSTKSHTHRLDASENRLGKPKYPLIPDKGSSIPSSSFHTSVHHQSIHTPASGPLSVGNISHNPKMAQPRTEPMPSLHAKSCGPPDSQHLTQDRLGQEGFGSSHHKKGDRRADGDHCASVTDSAPERELSPLISLPSPVPPLSPIHSNQQTLPRTQGSSKVHGSSNNSKGYCPAKSPKDLAVKVHDKETPQDSLVAPAQPPSQTFPPPSLPSKSVAMQQKPTAYVRPMDGQDQAPSESPELKPLPEDYRQQTFEKTDLKVPAKAKLTKLKMPSQSVEQTYSNEVHCVEEILKEMTHSWPPPLTAIHTPSTAEPSKFPFPTKDSQHVSSVTQNQKQYDTSSKTHSNSQQGTSSMLEDDLQLSDSEDSDSEQTPEKPPSSSAPPSAPQSLPEPVASAHSSSAESESTSDSDSSSDSESESSSSDSEENEPLETPAPEPEPPTTNKWQLDNWLTKVSQPAAPPEGPRSTEPPRRHPESKGSSDSATSQEHSESKDPPPKSSSKAPRAPPEAPHPGKRSCQKSPAQQEPPQRQTVGTKQPKKPVKASARAGSRTSLQGEREPGLLPYGSRDQTSKDKPKVKTKGRPRAAASNEPKPAVPPSSEKKKHKSSLPAPSKALSGPEPAKDNVEDRTPEHFALVPLTESQGPPHSGSGSRTSGCRQAVVVQEDSRKDRLPLPLRDTKLLSPLRDTPPPQSLMVKITLDLLSRIPQPPGKGSRQRKAEDKQPPAGKKHSSEKRSSDSSSKLAKKRKGEAERDCDNKKIRLEKEIKSQSSSSSSSHKESSKTKPSRPSSQSSKKEMLPPPPVSSSSQKPAKPALKRSRREADTCGQDPPKSASSTKSNHKDSSIPKQRRVEGKGSRSSSEHKGSSGDTANPFPVPSLPNGNSKPGKPQVKFDKQQADLHMREAKKMKQKAELMTDRVGKAFKYLEAVLSFIECGIATESESQSSKSAYSVYSETVDLIKFIMSLKSFSDATAPTQEKIFAVLCMRCQSILNMAMFRCKKDIAIKYSRTLNKHFESSSKVAQAPSPCIASTGTPSPLSPMPSPASSVGSQSSAGSVGSSGVAATISTPVTIQNMTSSYVTITSHVLTAFDLWEQAEALTRKNKEFFARLSTNVCTLALNSSLVDLVHYTRQGFQQLQELTKTP
